Test results: PMC12751014, “Non-Catalytic Inhibitors of the p38/MK2 Interface: Repurposing Approved Drugs to Target Neuroinflammation in Alzheimer’s Disease” (Journal of Medicinal Chemistry, 2025)
This list holds what a sample rich in strong results left over.

The chains behind the UniProt entries cited, without tags or fusion partners. Residues count along the entry.
UniProt Q16539, 2-360 limits assumed: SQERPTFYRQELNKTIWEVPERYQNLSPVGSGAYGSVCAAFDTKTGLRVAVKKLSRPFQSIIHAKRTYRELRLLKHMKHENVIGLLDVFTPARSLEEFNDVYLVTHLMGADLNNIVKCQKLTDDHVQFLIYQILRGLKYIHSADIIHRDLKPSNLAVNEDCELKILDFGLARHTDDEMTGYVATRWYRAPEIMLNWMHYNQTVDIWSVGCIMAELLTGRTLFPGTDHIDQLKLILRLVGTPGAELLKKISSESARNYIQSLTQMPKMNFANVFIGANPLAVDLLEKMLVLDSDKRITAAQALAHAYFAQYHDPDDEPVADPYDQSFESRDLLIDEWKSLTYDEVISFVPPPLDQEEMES

What follows are compounds tested against p38/MK2 protein–protein interaction (VF-p38α / GST-MK2) (Homo sapiens, UniProt Q16539) (assay: primary screen, percent of control activity; higher = less effect of the substance).
Design: species or system HEK293T cell lysate transfected with VF-p38α and GST-MK2; unclear (methods say 'quintuplet replicates')
Description: The TR-FRET assay was conducted in a 1536-well plate (Corning, catalog no. 3724) with HEK293T cell lysate transfected with VF-p38α and GST-MK2. Cell-lysate concentration was optimized with a titration experiment. Anti-Flag-Tb and anti-GST-d2 antibodies (Revvity, catalog no. 61FGBTLB) were used to couple p38α and MK2, respectively. A multiple-drop Combi dispenser (Thermo Scientific) combined reaction mixtures in quintuplet replicates. The TR-FRET signals were measured using a BMG Labtech PHERAstar FSX plate reader and normalized to the percent of DMSO control.

| SMILES | Pct of control [%] |
| --- | --- |
| CN1CCCC1CCOC(C)(c1ccccc1)c1ccc(Cl)cc1.O=C(O)C=CC(=O)O (stereo not shown) | 88.2 |
| CCCCCCCCCCCCCCCC[n+]1ccccc1.[Cl-] | 123 |
| CN1CCN2c3ccccc3Cc3ccccc3C2C1.Cl (stereo not shown) | 103 |
| CCC(=C(c1ccccc1)c1ccc(OCCN(C)C)cc1)c1ccccc1.O=C(O)CC(O)(CC(=O)O)C(=O)O | 95 |
| CCN(CC)CCOC(=O)C1(C2CCCCC2)CCCCC1.Cl | 91.8 |
| CC(C)(O)c1ccccc1CCC(SCC1(CC(=O)[O-])CC1)c1cccc(C=Cc2ccc3ccc(Cl)cc3n2)c1.[Na+] (stereo not shown) | 53.7 |
| O=C(O)C=CC(=O)O.OCCOCCN1CCN(C2=Nc3ccccc3Sc3ccccc32)CC1.OCCOCCN1CCN(C2=Nc3ccccc3Sc3ccccc32)CC1 | 92.7 |
| Clc1ccc(COC(Cn2ccnc2)c2ccc(Cl)cc2Cl)cc1.O=[N+]([O-])O (stereo not shown) | 99.7 |
| CN(C)CCN(Cc1cccs1)c1ccccn1.Cl | 88.6 |
| CC(C)NCC(O)COc1cccc2ccccc12.Cl (stereo not shown) | 105 |
| Clc1ccc2c(c1)CCc1cccnc1C2=C1CCNCC1 | 85.4 |
| CNCCCC12CCC(c3ccccc31)c1ccccc12.Cl | 91.2 |
| CN1CCN(CCCN2c3ccccc3Sc3ccc(Cl)cc32)CC1.O=C(O)C=CC(=O)O.O=C(O)C=CC(=O)O | 83.3 |
| CN(C)CCOC(c1ccccc1)c1ccccc1.Cl | 101 |
| CSc1ccc2c(c1)N(CCC1CCCCN1C)c1ccccc1S2.Cl (stereo not shown) | 91.3 |
| CN(C)CCCN1c2ccccc2CCc2ccc(Cl)cc21.Cl | 95.5 |
| CNCCC(Oc1ccc(C(F)(F)F)cc1)c1ccccc1.Cl (stereo not shown) | 97.7 |
| Clc1ccc(CSC(Cn2ccnc2)c2ccc(Cl)cc2Cl)cc1.O=[N+]([O-])O (stereo not shown) | 94.2 |
| CCCCc1oc2ccccc2c1C(=O)c1cc(I)c(OCCN(CC)CC)c(I)c1.Cl | 92.6 |
| CN1CCC(=C2c3ccccc3C=Cc3ccccc32)CC1.Cl | 87.8 |
| CN1C2CCC1CC(OC(c1ccccc1)c1ccccc1)C2.CS(=O)(=O)O (stereo not shown) | 87.2 |
| CNC1CCC(c2ccc(Cl)c(Cl)c2)c2ccccc21.Cl (stereo not shown) | 86.9 |
| CCN(CC)CCOc1ccc(C(=C(Cl)c2ccccc2)c2ccccc2)cc1.O=C(O)CC(O)(CC(=O)O)C(=O)O | 97.6 |
| Cl.Cl.Fc1ccc(C(c2ccc(F)cc2)N2CCN(CC=Cc3ccccc3)CC2)cc1 | 91.4 |
| Cc1ccccc1C(OCCN(C)C)c1ccccc1.O=C(O)CC(O)(CC(=O)O)C(=O)O (stereo not shown) | 85.6 |
